Results as given in the supplement of paper PMC10849652.
Some of the results follow.

Sequences of proteins named here, by UniProt entry; tags and fusion partners are left off. A change or cut given only in a name is not applied to a line headed by its entry.
UniProt Q9UN81: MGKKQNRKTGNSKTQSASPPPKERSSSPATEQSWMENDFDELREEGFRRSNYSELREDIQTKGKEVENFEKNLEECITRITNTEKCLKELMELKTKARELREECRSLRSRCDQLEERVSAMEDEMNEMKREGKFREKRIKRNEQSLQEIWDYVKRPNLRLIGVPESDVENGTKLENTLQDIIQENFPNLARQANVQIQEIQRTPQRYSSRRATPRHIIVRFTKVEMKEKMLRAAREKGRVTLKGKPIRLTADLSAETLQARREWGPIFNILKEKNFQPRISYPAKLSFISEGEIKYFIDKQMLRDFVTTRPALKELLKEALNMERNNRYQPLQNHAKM
UniProt Q9UHA4, whole entry, looked up: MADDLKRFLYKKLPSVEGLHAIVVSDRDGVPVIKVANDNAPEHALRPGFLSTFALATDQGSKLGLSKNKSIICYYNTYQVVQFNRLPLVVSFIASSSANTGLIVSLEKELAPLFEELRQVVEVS
UniProt Q9BQK8: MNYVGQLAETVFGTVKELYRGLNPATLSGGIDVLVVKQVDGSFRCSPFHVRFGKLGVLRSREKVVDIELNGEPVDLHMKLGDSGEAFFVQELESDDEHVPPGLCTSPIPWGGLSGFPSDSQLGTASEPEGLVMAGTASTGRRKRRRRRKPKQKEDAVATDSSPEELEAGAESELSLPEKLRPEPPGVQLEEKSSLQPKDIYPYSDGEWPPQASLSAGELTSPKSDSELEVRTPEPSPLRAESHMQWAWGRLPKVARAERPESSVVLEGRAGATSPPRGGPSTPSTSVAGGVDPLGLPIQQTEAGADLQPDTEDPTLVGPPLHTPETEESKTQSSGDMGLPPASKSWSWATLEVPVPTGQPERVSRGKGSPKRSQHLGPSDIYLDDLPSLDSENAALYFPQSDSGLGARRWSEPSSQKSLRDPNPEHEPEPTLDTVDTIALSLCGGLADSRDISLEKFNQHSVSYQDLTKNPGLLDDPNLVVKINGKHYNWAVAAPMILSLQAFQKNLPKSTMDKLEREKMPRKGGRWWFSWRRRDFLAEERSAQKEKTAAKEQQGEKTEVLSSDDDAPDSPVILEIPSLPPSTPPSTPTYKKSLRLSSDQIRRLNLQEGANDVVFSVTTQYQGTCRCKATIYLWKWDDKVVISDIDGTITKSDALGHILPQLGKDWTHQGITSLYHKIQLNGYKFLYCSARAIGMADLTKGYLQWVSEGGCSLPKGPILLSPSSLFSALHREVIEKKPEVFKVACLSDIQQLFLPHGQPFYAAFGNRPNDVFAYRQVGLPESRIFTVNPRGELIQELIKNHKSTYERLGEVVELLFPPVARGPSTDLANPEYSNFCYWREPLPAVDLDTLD
UniProt O94898: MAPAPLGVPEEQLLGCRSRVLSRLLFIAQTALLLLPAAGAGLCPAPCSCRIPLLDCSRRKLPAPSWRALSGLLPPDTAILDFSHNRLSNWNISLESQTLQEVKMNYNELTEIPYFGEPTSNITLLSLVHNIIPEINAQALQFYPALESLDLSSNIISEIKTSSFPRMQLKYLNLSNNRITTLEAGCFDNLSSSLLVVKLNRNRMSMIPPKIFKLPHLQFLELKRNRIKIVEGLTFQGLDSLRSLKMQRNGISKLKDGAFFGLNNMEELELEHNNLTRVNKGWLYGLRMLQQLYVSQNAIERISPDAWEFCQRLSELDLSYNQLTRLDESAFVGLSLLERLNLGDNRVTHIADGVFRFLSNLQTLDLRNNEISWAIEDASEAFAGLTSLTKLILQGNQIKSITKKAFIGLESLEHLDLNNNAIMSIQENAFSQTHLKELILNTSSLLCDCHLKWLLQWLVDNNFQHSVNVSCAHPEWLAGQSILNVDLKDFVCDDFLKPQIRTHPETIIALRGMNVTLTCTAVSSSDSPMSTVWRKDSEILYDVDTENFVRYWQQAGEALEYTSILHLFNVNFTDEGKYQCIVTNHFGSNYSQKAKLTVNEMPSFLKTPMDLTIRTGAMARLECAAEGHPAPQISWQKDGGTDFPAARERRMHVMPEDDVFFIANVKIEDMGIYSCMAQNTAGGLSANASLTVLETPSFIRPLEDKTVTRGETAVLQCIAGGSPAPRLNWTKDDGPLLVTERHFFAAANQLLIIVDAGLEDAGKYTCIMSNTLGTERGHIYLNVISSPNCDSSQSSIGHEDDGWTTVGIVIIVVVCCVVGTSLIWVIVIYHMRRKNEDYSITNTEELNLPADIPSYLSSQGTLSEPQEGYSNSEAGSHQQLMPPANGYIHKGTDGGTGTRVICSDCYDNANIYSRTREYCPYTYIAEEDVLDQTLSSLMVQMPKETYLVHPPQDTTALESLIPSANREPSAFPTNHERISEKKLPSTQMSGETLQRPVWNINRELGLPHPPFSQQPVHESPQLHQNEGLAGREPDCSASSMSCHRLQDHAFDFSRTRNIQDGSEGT
UniProt P11279: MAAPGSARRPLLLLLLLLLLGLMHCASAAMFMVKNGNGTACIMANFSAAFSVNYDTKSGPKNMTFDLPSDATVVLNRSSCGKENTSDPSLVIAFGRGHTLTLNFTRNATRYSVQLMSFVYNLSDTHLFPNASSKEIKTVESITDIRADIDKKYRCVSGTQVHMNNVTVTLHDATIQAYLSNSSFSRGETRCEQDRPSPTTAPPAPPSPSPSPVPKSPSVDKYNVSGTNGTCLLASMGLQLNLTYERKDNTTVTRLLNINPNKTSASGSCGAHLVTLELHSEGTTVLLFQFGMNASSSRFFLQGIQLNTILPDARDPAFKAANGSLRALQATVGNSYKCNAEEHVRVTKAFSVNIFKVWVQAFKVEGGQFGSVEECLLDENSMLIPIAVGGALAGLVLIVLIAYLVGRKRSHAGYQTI
UniProt Q86WA8: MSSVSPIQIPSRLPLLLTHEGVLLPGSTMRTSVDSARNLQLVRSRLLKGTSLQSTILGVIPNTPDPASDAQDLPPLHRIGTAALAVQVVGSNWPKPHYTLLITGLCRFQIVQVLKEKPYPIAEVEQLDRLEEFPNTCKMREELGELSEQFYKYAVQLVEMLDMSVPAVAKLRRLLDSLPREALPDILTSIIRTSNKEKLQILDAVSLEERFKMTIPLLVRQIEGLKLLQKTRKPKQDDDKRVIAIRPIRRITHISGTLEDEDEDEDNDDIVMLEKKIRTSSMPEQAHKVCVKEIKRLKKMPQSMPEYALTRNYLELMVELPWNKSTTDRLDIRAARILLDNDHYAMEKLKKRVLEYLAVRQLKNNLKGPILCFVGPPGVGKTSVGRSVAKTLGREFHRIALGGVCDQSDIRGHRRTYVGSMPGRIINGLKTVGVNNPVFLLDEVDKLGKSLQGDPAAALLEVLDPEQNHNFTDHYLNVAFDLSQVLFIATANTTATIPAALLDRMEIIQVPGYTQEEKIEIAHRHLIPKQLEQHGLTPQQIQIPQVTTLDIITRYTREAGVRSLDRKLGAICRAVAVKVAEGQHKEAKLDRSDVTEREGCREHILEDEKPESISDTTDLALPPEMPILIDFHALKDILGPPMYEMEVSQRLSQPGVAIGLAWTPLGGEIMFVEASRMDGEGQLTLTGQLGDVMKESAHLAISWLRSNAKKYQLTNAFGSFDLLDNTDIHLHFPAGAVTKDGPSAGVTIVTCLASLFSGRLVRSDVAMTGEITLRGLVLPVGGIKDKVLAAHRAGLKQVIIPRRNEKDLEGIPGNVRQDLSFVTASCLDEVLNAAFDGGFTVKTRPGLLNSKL
UniProt Q9UGP4: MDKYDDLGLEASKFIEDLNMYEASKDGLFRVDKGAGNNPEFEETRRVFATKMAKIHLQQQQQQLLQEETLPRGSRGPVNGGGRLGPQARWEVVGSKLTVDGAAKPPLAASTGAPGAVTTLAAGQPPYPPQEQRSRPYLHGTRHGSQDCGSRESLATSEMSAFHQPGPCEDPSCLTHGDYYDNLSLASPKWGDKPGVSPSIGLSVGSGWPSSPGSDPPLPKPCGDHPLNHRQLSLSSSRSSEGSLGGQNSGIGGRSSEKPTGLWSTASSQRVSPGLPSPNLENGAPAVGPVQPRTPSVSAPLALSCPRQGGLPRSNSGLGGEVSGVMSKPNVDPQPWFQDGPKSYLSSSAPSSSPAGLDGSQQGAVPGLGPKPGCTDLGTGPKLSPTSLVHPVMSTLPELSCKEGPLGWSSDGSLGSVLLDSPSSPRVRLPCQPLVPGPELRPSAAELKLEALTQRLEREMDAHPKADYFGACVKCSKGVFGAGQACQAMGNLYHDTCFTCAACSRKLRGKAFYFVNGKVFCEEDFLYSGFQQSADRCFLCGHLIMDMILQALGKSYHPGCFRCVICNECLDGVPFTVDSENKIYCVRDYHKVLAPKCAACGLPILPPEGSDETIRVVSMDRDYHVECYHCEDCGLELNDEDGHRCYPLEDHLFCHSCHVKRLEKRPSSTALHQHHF
UniProt Q12907: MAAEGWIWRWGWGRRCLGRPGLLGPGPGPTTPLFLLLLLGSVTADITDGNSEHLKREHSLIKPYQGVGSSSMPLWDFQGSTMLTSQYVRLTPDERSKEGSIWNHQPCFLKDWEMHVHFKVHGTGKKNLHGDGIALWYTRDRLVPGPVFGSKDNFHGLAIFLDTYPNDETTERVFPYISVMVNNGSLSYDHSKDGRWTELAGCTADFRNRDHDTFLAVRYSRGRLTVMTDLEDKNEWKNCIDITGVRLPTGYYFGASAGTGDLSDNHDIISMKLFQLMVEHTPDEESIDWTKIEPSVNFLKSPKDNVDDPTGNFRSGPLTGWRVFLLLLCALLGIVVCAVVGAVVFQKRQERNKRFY
UniProt Q16773: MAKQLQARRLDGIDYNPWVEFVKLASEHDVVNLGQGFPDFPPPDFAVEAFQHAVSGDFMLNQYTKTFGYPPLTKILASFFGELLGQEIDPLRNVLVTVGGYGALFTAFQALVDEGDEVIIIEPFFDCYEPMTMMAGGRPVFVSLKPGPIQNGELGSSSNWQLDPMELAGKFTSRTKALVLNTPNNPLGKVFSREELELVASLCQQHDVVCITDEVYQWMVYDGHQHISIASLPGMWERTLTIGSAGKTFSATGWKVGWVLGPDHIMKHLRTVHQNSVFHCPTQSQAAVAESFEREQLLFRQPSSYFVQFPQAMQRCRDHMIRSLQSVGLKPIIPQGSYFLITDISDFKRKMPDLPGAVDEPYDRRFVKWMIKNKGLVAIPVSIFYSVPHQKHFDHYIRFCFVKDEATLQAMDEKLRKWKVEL
UniProt P36776: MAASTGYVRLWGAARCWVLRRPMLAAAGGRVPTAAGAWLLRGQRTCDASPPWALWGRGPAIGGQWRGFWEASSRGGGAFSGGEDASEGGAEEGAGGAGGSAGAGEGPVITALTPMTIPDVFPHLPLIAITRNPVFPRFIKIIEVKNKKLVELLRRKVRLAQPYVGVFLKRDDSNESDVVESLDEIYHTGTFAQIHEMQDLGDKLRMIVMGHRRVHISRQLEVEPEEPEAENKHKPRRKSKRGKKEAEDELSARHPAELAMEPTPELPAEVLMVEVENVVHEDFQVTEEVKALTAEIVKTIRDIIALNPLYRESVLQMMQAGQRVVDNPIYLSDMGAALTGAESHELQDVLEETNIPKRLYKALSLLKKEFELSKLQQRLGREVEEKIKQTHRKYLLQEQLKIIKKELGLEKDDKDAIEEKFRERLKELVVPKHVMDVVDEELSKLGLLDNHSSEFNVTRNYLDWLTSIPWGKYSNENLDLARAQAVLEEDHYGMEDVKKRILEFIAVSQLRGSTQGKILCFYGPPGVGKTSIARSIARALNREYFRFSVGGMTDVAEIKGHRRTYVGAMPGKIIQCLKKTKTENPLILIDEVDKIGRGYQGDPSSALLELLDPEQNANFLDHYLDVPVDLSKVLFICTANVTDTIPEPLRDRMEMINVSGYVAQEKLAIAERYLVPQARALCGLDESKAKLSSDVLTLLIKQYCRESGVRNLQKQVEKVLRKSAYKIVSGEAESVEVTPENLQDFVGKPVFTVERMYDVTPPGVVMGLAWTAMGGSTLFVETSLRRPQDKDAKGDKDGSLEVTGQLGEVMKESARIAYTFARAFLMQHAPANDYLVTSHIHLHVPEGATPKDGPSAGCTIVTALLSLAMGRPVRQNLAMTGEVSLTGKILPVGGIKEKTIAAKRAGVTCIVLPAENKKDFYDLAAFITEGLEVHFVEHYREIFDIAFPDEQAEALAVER
UniProt Q8NC56: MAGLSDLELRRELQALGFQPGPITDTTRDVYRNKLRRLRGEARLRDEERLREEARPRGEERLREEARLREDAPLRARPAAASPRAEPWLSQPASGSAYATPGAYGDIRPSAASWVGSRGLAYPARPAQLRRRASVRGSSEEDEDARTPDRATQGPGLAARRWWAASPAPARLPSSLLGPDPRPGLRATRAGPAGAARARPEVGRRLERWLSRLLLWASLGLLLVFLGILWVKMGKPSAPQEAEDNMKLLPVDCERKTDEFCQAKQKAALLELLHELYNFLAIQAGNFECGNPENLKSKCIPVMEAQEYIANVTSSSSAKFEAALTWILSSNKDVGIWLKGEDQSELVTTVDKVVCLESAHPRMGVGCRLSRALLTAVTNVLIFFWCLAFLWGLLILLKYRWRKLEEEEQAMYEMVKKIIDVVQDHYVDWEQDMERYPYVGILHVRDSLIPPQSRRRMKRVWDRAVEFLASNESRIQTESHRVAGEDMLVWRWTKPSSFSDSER

Legend:
Assay in all cases: log2 fold change, soluble protein after heating vs DMSO (PISA); higher = thermal stabilisation; K562 cells, 10 uM, 30 min; active = over 0.2 and 3.5 SD of the protein, either way, in both replicates (recomputed)
erlotinib = compound: C#Cc1cccc(Nc2ncnc3cc(OCCOC)c(OCCOC)cc23)c1 [erlotinib]
In short: (§1)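 Quantification of soluble protein used TMTpro 16plex LC-MS/MS, with channel sums equalised. Samples were the supernatant after 21,000xg for 90 min of pooled aliquots from K562 cells (2×10^6 cells/mL) treated with 10 μM compound for 30 min, heated for 3 min over 48°C-58°C, and extracted in PBS with 0.5% NP-40 at 4°C. Values, from duplicates, describe thermal stability against control samples on a log2 fold-change scale.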

[1] = compound: C/C(=N\NC(=O)C1=CC(=CC=C1)S(=O)(=O)N2CCOCC2)/C3=C(C=CC(=C3)Cl)O
In short: as §1

[2] = compound: C1=CC(=C(C=C1Cl)C2=NC3=NC=CN=C3C(=N2)NC4=CC=NC=C4)F
In short: as §1

[3] = compound: C1=CC(=CC=C1C2=NC3=C(N2)C=C(C=C3)C(=O)N)OC4=CC=C(C=C4)Cl
In short: as §1

[4] = compound: C1=CC2=C(C=CC(=C2)/C=C\3/C(=O)NC(=NCC4=CC=CS4)S3)N=C1
In short: as §1

[5] = compound: C1=CC2=NC=CN=C2C=C1/C=C/3\C(=O)NC(=O)S3
In short: as §1

[6] = compound: C1=CC=C(C=C1)C2=NC(=C(N2)C3=CC=NC=C3)C4=CC(=C(C=C4)Cl)O
In short: as §1

[7] = compound: C1=CC=C2C(=C1)C3=NNC4=CC=CC(=C43)C2=O
In short: as §1

[8] = compound: C1CCN(C1)C(=O)NC2=CC=CC(=C2)NC3=NC=C(C(=N3)NCCC4=CN=CN4)Br
In short: as §1

[9] = compound: C1CN(CCC1(CC2=CC=C(C=C2)Cl)N)C3=NC=NC4=C3C=CN4
In short: as §1

Measured: log2 fold change

L1RE1 (UniProt Q9UN81)
inactive: erlotinib -0.021 | [1] -0.178 | [2] 0.225 | [3] 0.033 | [4] -0.037 | [5] 0.052 | [6] 0.034 | [7] -0.073 | [8] 0.057 | [9] -0.053

LEMD3 (UniProt Q9Y2U8)
inactive: erlotinib 0.102 | [1] 0.091 | [2] 0.109 | [3] -0.007 | [4] 0.003 | [5] -0.05 | [6] -0.01 | [7] 0.169 | [8] -0.063 | [9] -0.029

LARP4 isoform 4 (UniProt Q71RC2)
inactive: erlotinib 0.015 | [1] 0.007 | [2] -0.123 | [3] 0.055 | [4] 0.086 | [5] 0.002 | [6] -0.028 | [7] -0.044 | [8] -0.004 | [9] -0.035

LAMTOR3 (UniProt Q9UHA4)
inactive: erlotinib 0.046 | [1] 0.005 | [2] -0.036 | [3] -0.015 | [4] 0.055 | [5] 0.028 | [6] -0.119 | [7] -0.015 | [8] 0.034 | [9] -0.052

LPIN3 isoform 2 (UniProt Q9BQK8)
inactive: erlotinib 0.053 | [1] 0.062 | [2] 0.038 | [3] -0.045 | [4] 0.108 | [5] 0.022 | [6] -0.048 | [7] 0.022 | [8] 0.002 | [9] -0.014

LEPR (UniProt P48357)
inactive: erlotinib -0.07 | [1] 0.005 | [2] -0.027 | [3] 0.006 | [4] -0.053 | [5] 0.005 | [6] 0.026 | [7] -0.015 | [8] -0.024 | [9] 0.069

LACTB2 (UniProt Q53H82)
inactive: erlotinib -0.01 | [1] -0.023 | [2] 0.055 | [3] 0.04 | [4] 0.005 | [5] 0.004 | [6] 0.076 | [7] -0.02 | [8] -0.002 | [9] 0.035

LRIG2 (UniProt O94898)
inactive: erlotinib 0.107 | [1] -0.041 | [2] -0.007 | [3] -0.119 | [4] -0.066 | [5] -0.043 | [6] 0.051 | [7] -0.091 | [8] -0.11 | [9] -0.097

LRRC47 (UniProt Q8N1G4)
inactive: erlotinib 0.018 | [1] 0.027 | [2] 0.016 | [3] 0.023 | [4] -0.013 | [5] -0.009 | [6] 0.015 | [7] -0.002 | [8] -0.03 | [9] -0.006

LAMP2 (UniProt P13473)
inactive: erlotinib 0.035 | [1] 0 | [2] 0.088 | [3] 0.031 | [4] 0.002 | [5] 0.101 | [6] -0.013 | [7] -0.01 | [8] -0.013 | [9] 0.039

LMNB1 (UniProt P20700)
inactive: erlotinib -0.06 | [1] 0.071 | [2] 0.001 | [3] 0.029 | [4] -0.073 | [5] 0.064 | [6] -0.07 | [7] -0.151 | [8] -0.079 | [9] 0.001

LAMP1 (UniProt P11279)
inactive: erlotinib -0.027 | [1] -0.017 | [2] 0 | [3] 0.008 | [4] 0.01 | [5] -0.005 | [6] 0.04 | [7] -0.014 | [8] 0.017 | [9] 0.019

LONP2 (UniProt Q86WA8)
inactive: erlotinib 0.07 | [1] -0.111 | [2] 0.263 | [3] 0.131 | [4] -0.021 | [5] 0.065 | [6] 0.168 | [7] 0.067 | [8] -0.037 | [9] -0.002

L2HGDH (UniProt Q9H9P8)
inactive: erlotinib 0.027 | [1] 0.169 | [2] 0.009 | [3] 0.043 | [4] 0.07 | [5] 0.01 | [6] 0.05 | [7] 0.093 | [8] -0.005 | [9] -0.007

LIMA1 isoform 4 (UniProt Q9UHB6)
inactive: erlotinib -0.015 | [1] -0.062 | [2] -0.039 | [3] 0.069 | [4] 0.038 | [5] -0.015 | [6] 0.022 | [7] 0.054 | [8] 0 | [9] -0.039

LIMD1 (UniProt Q9UGP4)
inactive: erlotinib 0.017 | [1] 0.058 | [2] 0.062 | [3] -0.019 | [4] -0.01 | [5] 0.077 | [6] 0.013 | [7] 0.006 | [8] -0.045 | [9] 0.042

LMAN2 (UniProt Q12907)
inactive: erlotinib -0.03 | [1] -0.01 | [2] 0.015 | [3] 0.015 | [4] 0.037 | [5] 0.02 | [6] -0.018 | [7] 0.029 | [8] 0.008 | [9] 0.016

KYAT1 (UniProt Q16773)
inactive: erlotinib 0.032 | [1] 0.014 | [2] 0.031 | [3] 0.012 | [4] 0.065 | [5] 0.012 | [6] -0.047 | [7] 0.003 | [8] 0.012 | [9] 0.027

LETM1 (UniProt O95202)
inactive: erlotinib 0.001 | [1] 0.05 | [2] 0.069 | [3] 0.009 | [4] -0.008 | [5] 0.02 | [6] 0.046 | [7] 0.022 | [8] -0.02 | [9] 0.009

LPCAT1 (UniProt Q8NF37)
inactive: erlotinib 0.062 | [1] 0.044 | [2] 0.075 | [3] 0.014 | [4] 0.011 | [5] 0.065 | [6] 0.05 | [7] -0.006 | [8] -0.08 | [9] 0.101

LAMTOR5 (UniProt O43504)
inactive: erlotinib -0.119 | [1] 0.089 | [2] 0.016 | [3] 0.083 | [4] 0.027 | [5] 0.113 | [6] 0.086 | [7] 0.099 | [8] -0.089 | [9] -0.144

LONP1 (UniProt P36776)
inactive: erlotinib -0.01 | [1] -0.002 | [2] 0.009 | [3] -0.009 | [4] 0.005 | [5] 0.01 | [6] -0.021 | [7] -0.011 | [8] 0.004 | [9] 0.012

LEMD2 (UniProt Q8NC56)
inactive: erlotinib 0.04 | [1] 0.007 | [2] -0.054 | [3] -0.002 | [4] 0.11 | [5] 0.001 | [6] 0.042 | [7] 0.008 | [8] -0.016 | [9] 0.046

LMNB2 (UniProt Q03252)
inactive: erlotinib 0.027 | [1] 0.062 | [2] 0.001 | [3] 0.025 | [4] -0.042 | [5] 0.099 | [6] -0.066 | [7] -0.186 | [8] -0.167 | [9] 0.001

LRRC57 (UniProt Q8N9N7)
inactive: erlotinib 0.01 | [1] 0.021 | [2] 0.032 | [3] 0.005 | [4] 0.044 | [5] 0.017 | [6] -0.026 | [7] -0.007 | [8] -0.019 | [9] 0.04

LAMB1 (UniProt P07942)
inactive: erlotinib 0.025 | [1] 0.077 | [2] -0.021 | [3] 0.002 | [4] -0.009 | [5] 0.065 | [6] 0.026 | [7] 0.007 | [8] -0.035 | [9] 0.039

LNPEP (UniProt Q9UIQ6)
inactive: erlotinib -0.005 | [1] -0.002 | [2] 0.046 | [3] 0.016 | [4] 0.019 | [5] 0.034 | [6] 0.067 | [7] -0.008 | [8] -0.01 | [9] 0.042

LAGE3 (UniProt Q14657)
inactive: erlotinib 0.096 | [1] -0.018 | [2] 0.131 | [3] -0.047 | [4] 0.102 | [5] 0.051 | [6] 0.023 | [7] 0.033 | [8] -0.024 | [9] 0.068

Two successive records already listed:
LRRC57 (UniProt Q8N9N7)
inactive: erlotinib 0.01 | [1] 0.021 | [2] 0.032 | [3] 0.005 | [4] 0.044 | [5] 0.017 | [6] -0.026 | [7] -0.007 | [8] -0.019 | [9] 0.04

LAMB1 (UniProt P07942)
inactive: erlotinib 0.025 | [1] 0.077 | [2] -0.021 | [3] 0.002 | [4] -0.009 | [5] 0.065 | [6] 0.026 | [7] 0.007 | [8] -0.035 | [9] 0.039

(next part)

LIAS (UniProt O43766)
inactive: erlotinib 0.068 | [2] 0.011 | [3] 0.019 | [4] 0.014 | [5] 0.007 | [6] -0.273 | [7] 0.009 | [8] 0.028 | [9] 0
active: [1] -0.24

LGALS1 (UniProt P09382)
inactive: erlotinib -0.001 | [1] -0.008 | [2] 0.063 | [3] -0.012 | [4] 0.049 | [5] 0.035 | [6] 0.031 | [7] -0.021 | [8] -0.035 | [9] 0.03
